How the values were obtained:
mice [1] = assay type: in vivo; conditions: repeated evaluation with morphine sulfate for comparison; 30 min
Procedure: The test compounds were administered by subcutaneous injection 30 minutes before testing.

[2] = assay type: in vivo; conditions: intraperitoneal injection 45-60 minutes before testing
mice [3] = conditions: mouse, in vivo
Procedure: Physical dependency liability was evaluated in mice by the procedure of Saelens, et al., Aoch. Int. Pharmacodynam, 190:213-218, 1971. In this procedure, mice are administered increasing doses of a test compound at intervals on two consectuive days. The last dosage on the second day is followed by intraperitoneal injection of the morphine antagonist, naloxone, at a dosage of 100 mg/kg, and the mice are observed for characteristic jumping behavior indicative of opiate withdrawals or morphine antaganism. […].

SMILES: CN1CC[C@]23c4c5ccc(O)c4O[C@H]2[C@@H](O)C=C[C@H]3[C@H]1C5.O=S(=O)(O)O [morphine sulfate]
- ED50 (hot plate), repeated evaluation (mice [1]): 6.3 mg/kg
- ED50 (tail pinch) [2]: 1.2 mg/kg
- mice jumping after naloxone (mice [3]): 5 of 9

From US4183939A, “Glaucine analgesic method” (priority 1978, dated 1980)
